Assay results: the supplement of paper PMC10849652
Some of the results follow.

Amino acid sequences for entries named in this document (tags omitted). A change or cut given only in a name is not applied to a line headed by its entry.
UniProt P18858, whole entry, looked up: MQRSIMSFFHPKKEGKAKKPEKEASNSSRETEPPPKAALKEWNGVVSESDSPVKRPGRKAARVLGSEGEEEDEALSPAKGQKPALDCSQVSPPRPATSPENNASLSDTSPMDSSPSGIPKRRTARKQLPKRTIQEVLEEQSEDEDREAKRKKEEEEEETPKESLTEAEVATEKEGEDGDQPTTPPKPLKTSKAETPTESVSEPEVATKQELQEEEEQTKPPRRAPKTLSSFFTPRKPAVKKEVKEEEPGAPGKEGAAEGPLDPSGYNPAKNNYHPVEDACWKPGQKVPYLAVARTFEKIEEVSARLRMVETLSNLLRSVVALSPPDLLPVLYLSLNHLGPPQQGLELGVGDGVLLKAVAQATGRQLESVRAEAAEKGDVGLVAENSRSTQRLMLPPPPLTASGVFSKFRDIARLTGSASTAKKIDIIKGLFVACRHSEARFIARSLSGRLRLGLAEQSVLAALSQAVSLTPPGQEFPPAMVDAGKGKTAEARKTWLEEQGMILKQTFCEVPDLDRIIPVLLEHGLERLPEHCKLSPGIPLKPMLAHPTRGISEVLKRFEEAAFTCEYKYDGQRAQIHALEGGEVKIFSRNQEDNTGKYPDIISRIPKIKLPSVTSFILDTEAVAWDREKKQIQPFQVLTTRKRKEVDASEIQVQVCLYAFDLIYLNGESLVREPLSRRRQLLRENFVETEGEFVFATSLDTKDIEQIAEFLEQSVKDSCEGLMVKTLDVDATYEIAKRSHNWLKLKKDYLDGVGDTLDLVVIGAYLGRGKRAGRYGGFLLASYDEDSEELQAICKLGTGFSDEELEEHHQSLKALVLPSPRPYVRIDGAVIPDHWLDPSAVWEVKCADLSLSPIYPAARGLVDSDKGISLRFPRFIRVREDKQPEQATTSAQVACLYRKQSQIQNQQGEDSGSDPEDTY
UniProt Q8IWT6: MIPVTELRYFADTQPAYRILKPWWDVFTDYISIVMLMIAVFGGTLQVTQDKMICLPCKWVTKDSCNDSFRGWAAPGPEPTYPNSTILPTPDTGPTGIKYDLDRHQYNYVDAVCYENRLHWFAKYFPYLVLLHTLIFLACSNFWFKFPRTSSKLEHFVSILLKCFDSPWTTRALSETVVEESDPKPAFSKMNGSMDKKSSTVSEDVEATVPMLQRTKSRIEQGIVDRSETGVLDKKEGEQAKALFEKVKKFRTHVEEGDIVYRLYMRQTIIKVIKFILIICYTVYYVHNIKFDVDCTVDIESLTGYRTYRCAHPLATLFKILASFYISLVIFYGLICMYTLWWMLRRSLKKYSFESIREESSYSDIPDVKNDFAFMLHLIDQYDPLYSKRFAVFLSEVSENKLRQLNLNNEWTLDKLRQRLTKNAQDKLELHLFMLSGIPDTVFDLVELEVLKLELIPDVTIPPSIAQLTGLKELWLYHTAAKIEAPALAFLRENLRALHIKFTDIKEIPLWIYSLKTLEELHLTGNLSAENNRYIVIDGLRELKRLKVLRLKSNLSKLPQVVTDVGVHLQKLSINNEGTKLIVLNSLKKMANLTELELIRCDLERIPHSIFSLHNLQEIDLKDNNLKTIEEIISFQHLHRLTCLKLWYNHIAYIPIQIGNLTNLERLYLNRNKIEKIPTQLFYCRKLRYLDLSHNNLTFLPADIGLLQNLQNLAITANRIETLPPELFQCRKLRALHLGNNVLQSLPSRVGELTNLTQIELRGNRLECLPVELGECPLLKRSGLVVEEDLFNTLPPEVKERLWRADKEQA
UniProt O95777: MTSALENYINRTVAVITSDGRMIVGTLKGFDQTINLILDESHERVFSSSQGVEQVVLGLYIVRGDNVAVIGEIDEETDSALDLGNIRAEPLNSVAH
UniProt Q6MZP7: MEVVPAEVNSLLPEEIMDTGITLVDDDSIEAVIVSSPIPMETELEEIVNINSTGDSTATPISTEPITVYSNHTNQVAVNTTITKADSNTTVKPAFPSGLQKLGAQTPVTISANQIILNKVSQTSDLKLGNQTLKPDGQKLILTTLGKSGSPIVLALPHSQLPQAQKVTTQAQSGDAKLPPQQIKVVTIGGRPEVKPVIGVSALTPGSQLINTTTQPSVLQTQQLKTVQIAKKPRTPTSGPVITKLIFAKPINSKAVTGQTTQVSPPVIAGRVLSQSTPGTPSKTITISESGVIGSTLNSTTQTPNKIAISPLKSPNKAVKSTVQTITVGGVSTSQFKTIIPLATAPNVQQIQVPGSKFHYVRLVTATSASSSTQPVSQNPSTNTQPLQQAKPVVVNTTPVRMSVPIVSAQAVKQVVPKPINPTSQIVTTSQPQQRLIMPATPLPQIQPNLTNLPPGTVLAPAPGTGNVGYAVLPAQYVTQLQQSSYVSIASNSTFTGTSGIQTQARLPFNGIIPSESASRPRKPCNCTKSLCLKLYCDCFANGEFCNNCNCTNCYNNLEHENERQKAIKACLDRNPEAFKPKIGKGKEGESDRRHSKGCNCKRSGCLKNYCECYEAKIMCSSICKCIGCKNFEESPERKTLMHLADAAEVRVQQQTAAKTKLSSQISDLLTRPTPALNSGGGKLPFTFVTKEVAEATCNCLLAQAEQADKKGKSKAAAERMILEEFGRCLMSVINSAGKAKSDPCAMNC
UniProt Q6P9F7: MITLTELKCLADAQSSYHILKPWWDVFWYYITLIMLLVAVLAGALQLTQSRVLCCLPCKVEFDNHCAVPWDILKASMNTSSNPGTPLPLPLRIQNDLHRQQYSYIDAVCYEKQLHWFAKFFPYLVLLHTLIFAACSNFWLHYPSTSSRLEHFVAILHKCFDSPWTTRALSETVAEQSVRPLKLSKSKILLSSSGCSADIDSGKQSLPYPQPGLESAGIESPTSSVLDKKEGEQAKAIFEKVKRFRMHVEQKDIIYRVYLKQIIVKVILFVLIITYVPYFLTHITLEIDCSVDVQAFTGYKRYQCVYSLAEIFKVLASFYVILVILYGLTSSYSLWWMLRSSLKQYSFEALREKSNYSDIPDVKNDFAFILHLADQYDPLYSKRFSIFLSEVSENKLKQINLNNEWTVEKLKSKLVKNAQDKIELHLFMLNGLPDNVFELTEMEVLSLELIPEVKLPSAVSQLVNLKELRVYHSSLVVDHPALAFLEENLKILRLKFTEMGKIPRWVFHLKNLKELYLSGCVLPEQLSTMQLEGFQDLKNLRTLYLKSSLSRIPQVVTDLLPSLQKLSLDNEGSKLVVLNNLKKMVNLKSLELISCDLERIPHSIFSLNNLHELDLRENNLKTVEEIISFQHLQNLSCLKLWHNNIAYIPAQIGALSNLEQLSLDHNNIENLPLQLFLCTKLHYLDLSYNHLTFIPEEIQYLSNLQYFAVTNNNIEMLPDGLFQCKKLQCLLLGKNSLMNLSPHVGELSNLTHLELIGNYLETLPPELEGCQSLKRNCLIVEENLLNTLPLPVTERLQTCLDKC
UniProt P48449: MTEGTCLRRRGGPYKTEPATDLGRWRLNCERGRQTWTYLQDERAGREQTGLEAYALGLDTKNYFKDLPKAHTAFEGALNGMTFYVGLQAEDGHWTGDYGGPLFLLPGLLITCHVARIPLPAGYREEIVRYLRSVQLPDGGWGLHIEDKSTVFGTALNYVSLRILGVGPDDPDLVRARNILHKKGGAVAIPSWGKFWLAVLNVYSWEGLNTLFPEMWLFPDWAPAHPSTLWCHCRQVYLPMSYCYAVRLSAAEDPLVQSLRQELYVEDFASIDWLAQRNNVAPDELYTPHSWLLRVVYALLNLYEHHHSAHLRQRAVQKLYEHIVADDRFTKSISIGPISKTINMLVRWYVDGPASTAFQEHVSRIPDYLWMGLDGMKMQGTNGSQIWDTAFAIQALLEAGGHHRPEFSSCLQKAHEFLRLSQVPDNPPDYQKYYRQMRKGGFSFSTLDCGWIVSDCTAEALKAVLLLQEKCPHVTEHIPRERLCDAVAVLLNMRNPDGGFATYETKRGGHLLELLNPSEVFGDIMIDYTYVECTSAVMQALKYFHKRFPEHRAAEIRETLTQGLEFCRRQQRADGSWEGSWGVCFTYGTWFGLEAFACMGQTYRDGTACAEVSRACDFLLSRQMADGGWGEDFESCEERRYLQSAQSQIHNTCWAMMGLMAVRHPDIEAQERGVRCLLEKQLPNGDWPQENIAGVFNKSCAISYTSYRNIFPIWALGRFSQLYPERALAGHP
UniProt P49257: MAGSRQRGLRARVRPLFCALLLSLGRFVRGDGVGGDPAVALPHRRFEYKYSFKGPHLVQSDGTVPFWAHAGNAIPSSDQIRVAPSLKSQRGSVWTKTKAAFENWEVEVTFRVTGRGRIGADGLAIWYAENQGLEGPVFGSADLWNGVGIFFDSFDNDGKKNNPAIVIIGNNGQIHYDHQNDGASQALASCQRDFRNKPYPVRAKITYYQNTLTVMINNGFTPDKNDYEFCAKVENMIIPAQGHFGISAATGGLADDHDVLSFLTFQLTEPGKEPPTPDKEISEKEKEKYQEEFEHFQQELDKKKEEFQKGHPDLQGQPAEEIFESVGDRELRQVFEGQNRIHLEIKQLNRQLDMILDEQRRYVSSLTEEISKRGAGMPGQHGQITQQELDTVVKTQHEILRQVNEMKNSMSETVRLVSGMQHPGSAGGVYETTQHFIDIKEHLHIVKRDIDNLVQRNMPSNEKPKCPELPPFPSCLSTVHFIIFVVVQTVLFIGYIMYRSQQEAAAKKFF
UniProt P49917: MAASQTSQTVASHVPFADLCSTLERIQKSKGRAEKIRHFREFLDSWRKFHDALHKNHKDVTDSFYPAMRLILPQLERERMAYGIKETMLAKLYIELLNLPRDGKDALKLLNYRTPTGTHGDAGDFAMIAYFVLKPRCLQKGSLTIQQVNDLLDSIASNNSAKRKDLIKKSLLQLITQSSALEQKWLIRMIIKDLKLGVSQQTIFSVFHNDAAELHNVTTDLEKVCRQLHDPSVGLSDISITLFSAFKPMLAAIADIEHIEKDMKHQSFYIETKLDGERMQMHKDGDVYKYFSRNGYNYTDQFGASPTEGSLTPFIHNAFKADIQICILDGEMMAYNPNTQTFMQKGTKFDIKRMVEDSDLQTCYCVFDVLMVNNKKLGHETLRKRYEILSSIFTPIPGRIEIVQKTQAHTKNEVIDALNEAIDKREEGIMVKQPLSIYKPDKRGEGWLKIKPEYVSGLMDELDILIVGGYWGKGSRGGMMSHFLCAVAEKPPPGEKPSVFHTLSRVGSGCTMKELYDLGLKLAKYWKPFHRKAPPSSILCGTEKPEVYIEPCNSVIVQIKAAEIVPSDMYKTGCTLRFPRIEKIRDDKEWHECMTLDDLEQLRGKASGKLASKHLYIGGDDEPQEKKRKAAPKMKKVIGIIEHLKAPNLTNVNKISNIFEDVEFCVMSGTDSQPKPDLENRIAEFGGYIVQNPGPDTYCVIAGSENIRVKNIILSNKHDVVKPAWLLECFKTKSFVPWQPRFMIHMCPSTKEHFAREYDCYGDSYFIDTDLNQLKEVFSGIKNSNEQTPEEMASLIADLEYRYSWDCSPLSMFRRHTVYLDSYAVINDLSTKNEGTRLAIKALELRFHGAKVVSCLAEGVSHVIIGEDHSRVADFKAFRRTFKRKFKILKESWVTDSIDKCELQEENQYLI
UniProt P17931, whole entry, looked up: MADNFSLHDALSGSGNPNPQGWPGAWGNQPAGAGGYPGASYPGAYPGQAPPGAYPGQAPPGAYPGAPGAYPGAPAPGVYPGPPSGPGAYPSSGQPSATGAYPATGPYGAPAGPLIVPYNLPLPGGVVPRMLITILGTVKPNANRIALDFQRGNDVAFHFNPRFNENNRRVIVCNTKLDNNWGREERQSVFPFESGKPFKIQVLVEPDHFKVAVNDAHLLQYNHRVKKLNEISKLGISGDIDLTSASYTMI
UniProt P62310: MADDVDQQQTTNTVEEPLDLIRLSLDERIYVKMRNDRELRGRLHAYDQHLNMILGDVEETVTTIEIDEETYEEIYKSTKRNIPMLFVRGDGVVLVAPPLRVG
UniProt O60294: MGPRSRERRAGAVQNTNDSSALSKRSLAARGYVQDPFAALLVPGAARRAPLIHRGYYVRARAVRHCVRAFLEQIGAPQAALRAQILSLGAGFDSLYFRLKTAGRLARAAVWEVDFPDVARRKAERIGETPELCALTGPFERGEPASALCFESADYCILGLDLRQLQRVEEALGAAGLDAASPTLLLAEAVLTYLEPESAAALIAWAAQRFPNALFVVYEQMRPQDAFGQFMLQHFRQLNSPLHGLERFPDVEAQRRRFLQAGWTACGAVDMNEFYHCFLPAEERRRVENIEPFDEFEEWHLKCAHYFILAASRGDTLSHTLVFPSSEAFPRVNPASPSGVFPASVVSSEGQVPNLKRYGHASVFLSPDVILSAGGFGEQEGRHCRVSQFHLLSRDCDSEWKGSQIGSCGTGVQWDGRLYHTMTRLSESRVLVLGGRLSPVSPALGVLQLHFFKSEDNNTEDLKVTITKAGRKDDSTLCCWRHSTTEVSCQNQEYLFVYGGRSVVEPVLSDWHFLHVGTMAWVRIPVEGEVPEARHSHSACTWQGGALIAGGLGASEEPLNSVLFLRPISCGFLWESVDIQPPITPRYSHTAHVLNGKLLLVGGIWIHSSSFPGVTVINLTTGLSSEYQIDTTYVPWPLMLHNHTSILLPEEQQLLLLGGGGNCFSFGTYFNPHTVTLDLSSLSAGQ

Each target was assayed with C1=CC=C(C=C1)C2=NC(=C(N2)C3=CC=NC=C3)C4=CC(=C(C=C4)Cl)O (assay: log2 fold change, soluble protein after heating vs DMSO (PISA); higher = thermal stabilisation; K562 lysate, 10 uM; active = over 0.2 and 3.5 SD of the protein, either way, in both replicates (recomputed)).
Procedure, shortened: (§1)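 Soluble protein was defined as the supernatant remaining after 21,000xg for 90 min, following pooling of heated aliquots and adjustment to 0.5% NP-40 at 4°C. Before that, crude K562 extract at 1 mg/mL protein in PBS pH 7.4 with 1 mM MgCl2 was treated with 10 μM compound for 30 min and heated for 3 min across 48°C-58°C. Quantification used TMTpro 16plex LC-MS/MS with channel sums equalised, and values are log-two fold changes in thermal stability relative to solvent controls from duplicates.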

log2 fold change, inactive:
LIG1 (UniProt P18858) 0.009, LMTK2 (UniProt Q8IWU2) 0.02, LMNA (UniProt P02545) -0.011, LARS2 (UniProt Q15031) 0.014, LINGO1 (UniProt Q96FE5) 0.018, LDB1 (UniProt Q86U70) 0.002, LRRC57 (UniProt Q8N9N7) -0.008, LDHC (UniProt P07864) -0.055, LENG1 (UniProt Q96BZ8) -0.025, LRRC8A (UniProt Q8IWT6) 0.003, LRWD1 (UniProt Q9UFC0) 0.016, LRRC40 (UniProt Q9H9A6) -0.015, LCP2 (UniProt Q13094) -0.004, LRCH3 (UniProt Q96II8) 0, LSM8 (UniProt O95777) -0.026, LIN54 (UniProt Q6MZP7) 0.048, LRPAP1 (UniProt P30533) -0.017, LRRC8B (UniProt Q6P9F7) -0.002, LSS (UniProt P48449) 0.037, LRRC8C (UniProt Q8TDW0) 0.105, LPIN1 isoform 7 (UniProt Q14693) 0.011, LRRFIP2 (UniProt Q9Y608) 0.013, LSM6 (UniProt P62312) -0.013, LSM1 (UniProt O15116) -0.009, LMAN1 (UniProt P49257) -0.009, LRRC14 (UniProt Q15048) 0.052, LETM1 (UniProt O95202) 0.01, LMNB1 (UniProt P20700) 0.016, LPCAT3 (UniProt Q6P1A2) -0.001, LIG4 (UniProt P49917) 0.024, LRCH4 (UniProt O75427) 0.097, LMO2 isoform 3 (UniProt P25791) -0.124, LGALS3 (UniProt P17931) -0.05, LSM3 (UniProt P62310) -0.024, LCP1 (UniProt P13796) 0.008, LCMT2 (UniProt O60294) -0.059, LDAH isoform 2 (UniProt Q9H6V9) -0.01, LIN7C (UniProt Q9NUP9) -0.01

The targets below were run with C1=CC=C2C(=C1)C3=NNC4=CC=CC(=C43)C2=O in the same assay as above.
Procedure, shortened: as §1

log2 fold change, inactive:
LIG1 (UniProt P18858) -0.001, LMTK2 (UniProt Q8IWU2) -0.043, LMNA (UniProt P02545) 0.002, LARS2 (UniProt Q15031) 0.029, LINGO1 (UniProt Q96FE5) -0.026, LDB1 (UniProt Q86U70) -0.065, LRRC57 (UniProt Q8N9N7) 0.009, LDHC (UniProt P07864) 0.015, LENG1 (UniProt Q96BZ8) 0.028, LRRC8A (UniProt Q8IWT6) 0.035, LRWD1 (UniProt Q9UFC0) -0.014, LRRC40 (UniProt Q9H9A6) -0.014, LCP2 (UniProt Q13094) 0.015, LRCH3 (UniProt Q96II8) -0.053, LSM8 (UniProt O95777) 0.066, LIN54 (UniProt Q6MZP7) -0.016, LRPAP1 (UniProt P30533) -0.078, LRRC8B (UniProt Q6P9F7) -0.062, LSS (UniProt P48449) -0.006, LRRC8C (UniProt Q8TDW0) -0.053, LPIN1 isoform 7 (UniProt Q14693) -0.006, LRRFIP2 (UniProt Q9Y608) 0.008, LSM6 (UniProt P62312) 0.036, LSM1 (UniProt O15116) -0.022, LMAN1 (UniProt P49257) -0.029, LRRC14 (UniProt Q15048) -0.013, LETM1 (UniProt O95202) 0.044, LMNB1 (UniProt P20700) 0.008, LPCAT3 (UniProt Q6P1A2) -0.017, LIG4 (UniProt P49917) -0.003, LRCH4 (UniProt O75427) -0.026, LMO2 isoform 3 (UniProt P25791) -0.02, LGALS3 (UniProt P17931) 0.046, LSM3 (UniProt P62310) -0.069, LCP1 (UniProt P13796) 0.007, LCMT2 (UniProt O60294) -0.014, LDAH isoform 2 (UniProt Q9H6V9) -0.021, LIN7C (UniProt Q9NUP9) 0.068
